Experimental data as given in patent US20070003551A1.
These are yes or no findings as the source states them, for the method shown. Some entries that bind do so weakly or less than the wild type.

The chains behind the UniProt entries cited, without tags or fusion partners. Where a name states a change or a piece, a line headed by the entry shows the natural chain unless it says otherwise.
UniProt P08514: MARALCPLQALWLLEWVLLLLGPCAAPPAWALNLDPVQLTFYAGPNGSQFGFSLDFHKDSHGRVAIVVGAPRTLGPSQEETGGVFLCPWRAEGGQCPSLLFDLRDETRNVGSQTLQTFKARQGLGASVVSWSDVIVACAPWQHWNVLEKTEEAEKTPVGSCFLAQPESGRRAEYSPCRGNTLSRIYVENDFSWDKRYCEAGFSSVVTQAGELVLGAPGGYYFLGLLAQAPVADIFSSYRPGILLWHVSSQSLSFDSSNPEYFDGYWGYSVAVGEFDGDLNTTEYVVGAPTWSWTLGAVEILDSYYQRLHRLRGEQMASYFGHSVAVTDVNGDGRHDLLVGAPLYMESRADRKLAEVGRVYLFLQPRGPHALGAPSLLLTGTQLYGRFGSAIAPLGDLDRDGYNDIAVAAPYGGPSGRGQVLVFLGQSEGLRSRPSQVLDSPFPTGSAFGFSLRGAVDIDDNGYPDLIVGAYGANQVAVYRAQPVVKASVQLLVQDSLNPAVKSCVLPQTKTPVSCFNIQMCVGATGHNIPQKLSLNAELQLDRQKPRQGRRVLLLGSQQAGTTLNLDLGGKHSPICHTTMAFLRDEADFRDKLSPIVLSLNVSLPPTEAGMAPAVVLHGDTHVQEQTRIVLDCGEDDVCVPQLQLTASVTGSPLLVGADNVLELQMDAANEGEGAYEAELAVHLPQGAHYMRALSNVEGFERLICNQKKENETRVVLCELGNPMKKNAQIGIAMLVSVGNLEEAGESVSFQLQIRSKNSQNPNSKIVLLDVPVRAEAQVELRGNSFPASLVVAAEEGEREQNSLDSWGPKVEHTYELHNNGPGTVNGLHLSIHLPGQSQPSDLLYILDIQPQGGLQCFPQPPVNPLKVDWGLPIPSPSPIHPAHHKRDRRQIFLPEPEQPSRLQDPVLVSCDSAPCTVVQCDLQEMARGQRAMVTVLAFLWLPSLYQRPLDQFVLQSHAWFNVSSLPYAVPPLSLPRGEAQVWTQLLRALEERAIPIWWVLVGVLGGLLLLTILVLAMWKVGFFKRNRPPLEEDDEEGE

Biological target: platelet glycoprotein IIb/IIIa on platelets (UniProt P08514)
Assay: flow cytometry, inhibition of fibrinogen binding to ADP-activated platelets

B1: Fab-expressing phage clone S4 (Fab, V domains shown)
VH: VQLLEESGGGLVQPGGSLRLSCTASRFTLSTYEMNWVRQAPGKGLEWVSYISTSGGIMYYADSVRGRFTISRDNAKNSLYLQMNSLRAEDTALYYCATVTLDGNNPFENWGQGTLVT
VL: AAELTQSPLSLSVTLGQPASIACKSSHSLARSDGVSLMNWVHLRPGRSPRRLIYDVSKRENGVPDRFSGSGSGTDFTLEINRVEAEDVGLYYCLQYAHWPHTFGQGTKLEIKR
binding: binds
